These are yes or no findings as the source states them, for the method shown. In cells and extracts the contact can be indirect. Some entries that bind do so weakly or less than the wild type. Where a sequence is shown, tags or fusion partners need not be part of it.
Target: T1, Flag-tagged PGK1 (phosphoglycerate kinase 1) (human) (UniProt P00558)
T1 sequence: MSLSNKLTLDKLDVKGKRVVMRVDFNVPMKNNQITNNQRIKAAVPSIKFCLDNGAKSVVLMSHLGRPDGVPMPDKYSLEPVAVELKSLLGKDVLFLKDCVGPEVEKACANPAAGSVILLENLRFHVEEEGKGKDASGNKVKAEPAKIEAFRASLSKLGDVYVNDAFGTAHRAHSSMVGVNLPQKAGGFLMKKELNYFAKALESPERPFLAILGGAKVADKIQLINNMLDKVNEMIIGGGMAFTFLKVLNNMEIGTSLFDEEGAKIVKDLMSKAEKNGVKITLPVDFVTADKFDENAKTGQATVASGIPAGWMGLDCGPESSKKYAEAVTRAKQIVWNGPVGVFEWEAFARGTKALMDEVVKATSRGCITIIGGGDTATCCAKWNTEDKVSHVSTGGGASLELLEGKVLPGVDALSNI
Experiment: co-IP; Flag-PGK1 co-overexpressed with an HA-tagged partner in HEK293T cells; IP with Flag beads or Flag antibody, western blot with HA antibody; in some panels cells treated with insulin (50 nM, 2 hr), LY294002 or Wortmannin

binding: binds
Substance: HA-tagged HDAC3 (histone deacetylase 3) (from UniProt O15379-1 1-428) (enzyme)
